In assay [1] the target is Ptc2::eGFP (Aspergillus flavus). The assay is described as follows: co-IP.
Assay [2] deals with Ptc1::eGFP (Aspergillus flavus) (UniProt B8NLZ3). The assay is described as follows: co-IP.

The chains behind the UniProt entries cited, without tags or fusion partners.
UniProt B8NLZ3: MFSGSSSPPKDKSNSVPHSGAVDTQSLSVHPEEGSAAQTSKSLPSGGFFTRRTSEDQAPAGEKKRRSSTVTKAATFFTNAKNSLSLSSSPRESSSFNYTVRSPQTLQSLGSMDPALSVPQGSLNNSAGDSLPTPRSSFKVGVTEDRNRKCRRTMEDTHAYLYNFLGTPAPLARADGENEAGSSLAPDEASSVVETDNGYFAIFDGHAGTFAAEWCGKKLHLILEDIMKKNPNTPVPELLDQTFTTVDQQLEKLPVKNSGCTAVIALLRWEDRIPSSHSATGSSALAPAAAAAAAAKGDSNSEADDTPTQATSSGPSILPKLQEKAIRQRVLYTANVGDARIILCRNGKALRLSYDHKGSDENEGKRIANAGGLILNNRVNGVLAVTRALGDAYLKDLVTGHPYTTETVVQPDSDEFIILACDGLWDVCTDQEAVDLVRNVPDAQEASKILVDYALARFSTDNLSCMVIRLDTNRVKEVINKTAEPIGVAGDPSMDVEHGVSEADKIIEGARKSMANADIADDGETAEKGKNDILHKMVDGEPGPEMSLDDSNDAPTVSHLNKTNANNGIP
UniProt A0A7G5KET3: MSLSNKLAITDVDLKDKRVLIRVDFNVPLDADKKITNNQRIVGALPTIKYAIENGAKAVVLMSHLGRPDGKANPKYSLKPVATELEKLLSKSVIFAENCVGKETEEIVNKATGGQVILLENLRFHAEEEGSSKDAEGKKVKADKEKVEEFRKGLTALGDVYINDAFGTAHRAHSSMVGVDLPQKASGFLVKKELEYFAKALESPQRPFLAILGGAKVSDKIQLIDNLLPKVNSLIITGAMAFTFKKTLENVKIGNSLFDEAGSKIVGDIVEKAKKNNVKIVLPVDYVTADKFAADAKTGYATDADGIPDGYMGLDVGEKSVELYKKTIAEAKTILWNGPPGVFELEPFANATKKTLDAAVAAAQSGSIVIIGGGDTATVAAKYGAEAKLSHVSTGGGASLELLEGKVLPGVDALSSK

No constants are given. Whether binding was seen depends on the method and setting. In cells and extracts the contact can be indirect. Some binding calls cover weakened binding; strength is not graded here.

Regarding “phosphoglycerate kinase 1 (PGK1) (from UniProt A0A7G5KET3 1-417) (enzyme)”, the binding entry in assay [1] and in assay [2] was “binds” throughout.

Source of the values: publication PMC10653812.
